These are yes or no findings as the source states them, for the method shown. In cells and extracts the contact can be indirect. Some results given as binding are weak or reduced against the parent protein; the word gives no strength.
Assays:
[1] = target: Cyclin-dependent kinase 6 (human (endogenous in H69AR and H446DDP)) (UniProt Q00534); experiment: co-IP; endogenous proteins; H69AR and H446DDP cells with or without PD (0.5 µM) and LEE (0.8 µM), also scramble- or siAMBRA1-transfected H69AR cells; RIPA lysate, antibody or control IgG, protein A/G magnetic beads, western blot
[2] = target: Cyclin-dependent kinase 6 (human (endogenous in H69AR and H446DDP)) (UniProt Q00534); experiment: co-IP; endogenous proteins; cytosolic and nuclear fractions of H69AR and H446DDP cells; antibody or control IgG, protein A/G magnetic beads, western blot

Amino acid sequences for entries named in this document (tags omitted).
UniProt Q00534: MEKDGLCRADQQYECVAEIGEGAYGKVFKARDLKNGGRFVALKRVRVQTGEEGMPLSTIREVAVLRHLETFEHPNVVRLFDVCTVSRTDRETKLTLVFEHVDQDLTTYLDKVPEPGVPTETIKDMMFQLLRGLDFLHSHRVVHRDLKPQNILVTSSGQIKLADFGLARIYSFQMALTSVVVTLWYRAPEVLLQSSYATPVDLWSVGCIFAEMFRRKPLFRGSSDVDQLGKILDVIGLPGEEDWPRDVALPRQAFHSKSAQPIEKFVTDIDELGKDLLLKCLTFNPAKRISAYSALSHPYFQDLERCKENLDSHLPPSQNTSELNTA
UniProt Q13619: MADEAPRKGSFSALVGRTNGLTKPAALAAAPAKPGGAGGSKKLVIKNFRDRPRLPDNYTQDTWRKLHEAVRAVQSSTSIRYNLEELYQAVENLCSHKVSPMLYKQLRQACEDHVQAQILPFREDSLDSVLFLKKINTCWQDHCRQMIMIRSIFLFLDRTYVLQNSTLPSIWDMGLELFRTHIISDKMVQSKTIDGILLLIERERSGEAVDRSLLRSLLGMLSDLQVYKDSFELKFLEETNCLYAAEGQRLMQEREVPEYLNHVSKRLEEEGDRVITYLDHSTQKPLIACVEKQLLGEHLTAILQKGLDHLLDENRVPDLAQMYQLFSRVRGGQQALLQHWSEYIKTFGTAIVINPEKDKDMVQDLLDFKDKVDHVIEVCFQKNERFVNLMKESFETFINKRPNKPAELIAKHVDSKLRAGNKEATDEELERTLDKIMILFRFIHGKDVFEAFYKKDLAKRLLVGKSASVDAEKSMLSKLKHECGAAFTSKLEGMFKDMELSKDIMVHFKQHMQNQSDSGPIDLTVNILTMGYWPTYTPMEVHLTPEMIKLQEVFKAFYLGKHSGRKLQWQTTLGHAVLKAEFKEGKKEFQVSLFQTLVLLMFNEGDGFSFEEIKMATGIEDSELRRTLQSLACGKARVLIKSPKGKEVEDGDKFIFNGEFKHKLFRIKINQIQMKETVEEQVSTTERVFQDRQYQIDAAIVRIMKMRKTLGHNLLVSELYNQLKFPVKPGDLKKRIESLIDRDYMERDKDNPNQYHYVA
UniProt P19532: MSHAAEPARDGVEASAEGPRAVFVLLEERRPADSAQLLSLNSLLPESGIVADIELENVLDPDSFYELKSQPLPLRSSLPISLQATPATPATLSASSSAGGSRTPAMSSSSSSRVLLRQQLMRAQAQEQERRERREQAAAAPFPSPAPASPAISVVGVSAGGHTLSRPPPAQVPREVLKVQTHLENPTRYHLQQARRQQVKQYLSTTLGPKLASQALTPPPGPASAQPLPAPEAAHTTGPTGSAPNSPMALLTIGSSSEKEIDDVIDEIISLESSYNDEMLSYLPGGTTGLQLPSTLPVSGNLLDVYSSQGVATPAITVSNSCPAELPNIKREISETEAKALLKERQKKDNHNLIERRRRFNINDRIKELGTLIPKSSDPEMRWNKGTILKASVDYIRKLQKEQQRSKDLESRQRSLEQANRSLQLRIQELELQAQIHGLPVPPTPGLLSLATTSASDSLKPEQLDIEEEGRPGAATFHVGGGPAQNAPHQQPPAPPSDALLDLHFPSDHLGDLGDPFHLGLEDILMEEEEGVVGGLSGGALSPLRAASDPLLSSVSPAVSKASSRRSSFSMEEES

| binding [1] | binding [2] | Substance |
| --- | --- | --- |
| binds |  | CUL4A (from UniProt Q13619 1-759) |
|  | binds | TFE3 (from UniProt P19532 1-575) |
